Measurements: paper PMC11164484
No constants are given. Whether binding was seen depends on the method and setting. Binding seen in cells or lysates may run through a third protein. These calls come from enrichment with a bait or labelling near it, and not all partners need be listed.

Sequences of proteins named here, by UniProt entry; tags and fusion partners are left off. Residues count along the entry.
UniProt P00738, residues 19-406: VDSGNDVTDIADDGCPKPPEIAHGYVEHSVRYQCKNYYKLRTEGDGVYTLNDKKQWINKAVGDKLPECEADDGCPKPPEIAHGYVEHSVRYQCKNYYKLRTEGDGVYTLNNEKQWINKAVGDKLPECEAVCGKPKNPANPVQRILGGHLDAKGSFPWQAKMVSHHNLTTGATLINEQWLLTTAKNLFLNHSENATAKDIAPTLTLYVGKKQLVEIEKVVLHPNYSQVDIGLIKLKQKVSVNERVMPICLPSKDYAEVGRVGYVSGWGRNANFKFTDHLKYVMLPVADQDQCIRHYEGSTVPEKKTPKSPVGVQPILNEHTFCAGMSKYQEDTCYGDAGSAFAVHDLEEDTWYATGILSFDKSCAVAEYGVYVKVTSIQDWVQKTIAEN
UniProt P15924: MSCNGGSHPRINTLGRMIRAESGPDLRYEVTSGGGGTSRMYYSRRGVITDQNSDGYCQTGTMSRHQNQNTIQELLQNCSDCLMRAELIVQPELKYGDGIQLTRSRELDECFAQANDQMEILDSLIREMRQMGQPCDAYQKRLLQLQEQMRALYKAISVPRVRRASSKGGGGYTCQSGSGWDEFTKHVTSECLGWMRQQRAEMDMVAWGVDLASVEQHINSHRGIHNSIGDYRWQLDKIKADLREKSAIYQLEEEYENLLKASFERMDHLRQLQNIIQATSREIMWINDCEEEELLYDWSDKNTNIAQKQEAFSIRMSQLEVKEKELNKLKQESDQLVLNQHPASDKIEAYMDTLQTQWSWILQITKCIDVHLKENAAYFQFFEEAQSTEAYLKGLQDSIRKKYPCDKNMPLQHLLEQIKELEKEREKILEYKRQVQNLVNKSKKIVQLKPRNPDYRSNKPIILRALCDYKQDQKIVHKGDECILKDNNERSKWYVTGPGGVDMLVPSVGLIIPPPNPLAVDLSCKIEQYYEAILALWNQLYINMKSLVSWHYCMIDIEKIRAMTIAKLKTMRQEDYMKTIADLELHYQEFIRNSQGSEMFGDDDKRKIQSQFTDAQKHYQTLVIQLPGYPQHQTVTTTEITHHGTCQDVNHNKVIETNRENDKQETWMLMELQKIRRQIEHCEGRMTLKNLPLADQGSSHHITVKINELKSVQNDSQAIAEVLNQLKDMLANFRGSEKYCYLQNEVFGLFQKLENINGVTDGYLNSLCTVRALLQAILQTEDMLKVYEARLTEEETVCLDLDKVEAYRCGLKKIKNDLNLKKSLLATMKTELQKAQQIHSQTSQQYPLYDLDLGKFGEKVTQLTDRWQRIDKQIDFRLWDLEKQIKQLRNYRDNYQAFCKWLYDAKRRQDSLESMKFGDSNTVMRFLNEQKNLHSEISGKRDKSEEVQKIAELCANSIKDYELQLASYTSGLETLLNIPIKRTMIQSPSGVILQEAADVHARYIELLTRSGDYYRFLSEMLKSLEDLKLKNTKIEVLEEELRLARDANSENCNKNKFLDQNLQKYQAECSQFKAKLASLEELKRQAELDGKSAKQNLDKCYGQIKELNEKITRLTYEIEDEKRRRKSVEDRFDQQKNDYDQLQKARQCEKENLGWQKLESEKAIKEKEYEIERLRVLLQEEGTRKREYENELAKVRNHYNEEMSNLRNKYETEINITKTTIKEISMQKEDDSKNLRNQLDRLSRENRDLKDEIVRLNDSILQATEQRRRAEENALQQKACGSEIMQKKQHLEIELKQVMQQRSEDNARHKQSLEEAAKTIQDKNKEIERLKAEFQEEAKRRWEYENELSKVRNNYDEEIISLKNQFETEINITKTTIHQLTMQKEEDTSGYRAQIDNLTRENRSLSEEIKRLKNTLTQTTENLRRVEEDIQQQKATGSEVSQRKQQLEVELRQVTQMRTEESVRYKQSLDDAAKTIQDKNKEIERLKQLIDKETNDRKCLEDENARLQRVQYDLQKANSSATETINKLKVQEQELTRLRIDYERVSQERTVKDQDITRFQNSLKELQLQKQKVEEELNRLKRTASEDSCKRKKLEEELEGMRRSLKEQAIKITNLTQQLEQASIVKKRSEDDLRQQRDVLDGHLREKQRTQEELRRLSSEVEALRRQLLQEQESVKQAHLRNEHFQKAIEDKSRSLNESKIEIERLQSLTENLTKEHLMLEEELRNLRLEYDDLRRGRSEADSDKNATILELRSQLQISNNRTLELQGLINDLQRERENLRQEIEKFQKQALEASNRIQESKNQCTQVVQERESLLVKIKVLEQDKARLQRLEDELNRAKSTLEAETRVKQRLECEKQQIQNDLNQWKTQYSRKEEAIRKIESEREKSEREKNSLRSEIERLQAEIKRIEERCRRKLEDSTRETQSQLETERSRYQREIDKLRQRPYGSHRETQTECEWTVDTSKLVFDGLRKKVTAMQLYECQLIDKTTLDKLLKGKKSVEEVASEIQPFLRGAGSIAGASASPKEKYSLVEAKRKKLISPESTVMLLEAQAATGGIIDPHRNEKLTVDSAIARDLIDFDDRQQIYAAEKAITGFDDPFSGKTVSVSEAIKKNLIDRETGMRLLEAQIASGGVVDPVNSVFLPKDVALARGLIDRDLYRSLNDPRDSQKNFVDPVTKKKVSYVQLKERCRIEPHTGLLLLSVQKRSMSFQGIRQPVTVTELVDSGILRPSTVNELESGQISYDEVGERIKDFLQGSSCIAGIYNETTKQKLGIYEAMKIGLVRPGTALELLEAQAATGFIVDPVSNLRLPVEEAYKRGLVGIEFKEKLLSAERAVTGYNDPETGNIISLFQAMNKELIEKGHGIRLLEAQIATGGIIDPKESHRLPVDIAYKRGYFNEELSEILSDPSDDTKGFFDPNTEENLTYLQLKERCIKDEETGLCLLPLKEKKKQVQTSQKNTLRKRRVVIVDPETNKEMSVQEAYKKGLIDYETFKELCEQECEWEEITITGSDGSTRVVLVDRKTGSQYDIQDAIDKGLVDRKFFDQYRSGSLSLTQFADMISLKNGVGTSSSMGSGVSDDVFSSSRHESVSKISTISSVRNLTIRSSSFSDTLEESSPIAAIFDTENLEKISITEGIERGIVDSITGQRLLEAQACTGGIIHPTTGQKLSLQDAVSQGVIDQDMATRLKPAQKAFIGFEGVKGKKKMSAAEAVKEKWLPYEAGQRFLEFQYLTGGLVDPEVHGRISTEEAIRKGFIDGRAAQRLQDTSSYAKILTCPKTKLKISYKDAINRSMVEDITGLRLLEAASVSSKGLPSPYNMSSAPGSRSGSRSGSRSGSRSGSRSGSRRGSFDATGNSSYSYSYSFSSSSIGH
UniProt P04406: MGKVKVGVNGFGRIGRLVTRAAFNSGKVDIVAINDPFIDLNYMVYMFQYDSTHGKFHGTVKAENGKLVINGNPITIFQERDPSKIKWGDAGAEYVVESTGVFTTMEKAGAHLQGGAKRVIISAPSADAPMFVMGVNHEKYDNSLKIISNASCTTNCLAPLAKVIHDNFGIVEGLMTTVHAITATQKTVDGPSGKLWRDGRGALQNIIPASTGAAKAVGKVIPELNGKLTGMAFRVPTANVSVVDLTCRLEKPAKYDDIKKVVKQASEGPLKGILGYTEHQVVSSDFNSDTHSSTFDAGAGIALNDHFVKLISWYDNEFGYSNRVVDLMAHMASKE
UniProt P01833, residues 19-764: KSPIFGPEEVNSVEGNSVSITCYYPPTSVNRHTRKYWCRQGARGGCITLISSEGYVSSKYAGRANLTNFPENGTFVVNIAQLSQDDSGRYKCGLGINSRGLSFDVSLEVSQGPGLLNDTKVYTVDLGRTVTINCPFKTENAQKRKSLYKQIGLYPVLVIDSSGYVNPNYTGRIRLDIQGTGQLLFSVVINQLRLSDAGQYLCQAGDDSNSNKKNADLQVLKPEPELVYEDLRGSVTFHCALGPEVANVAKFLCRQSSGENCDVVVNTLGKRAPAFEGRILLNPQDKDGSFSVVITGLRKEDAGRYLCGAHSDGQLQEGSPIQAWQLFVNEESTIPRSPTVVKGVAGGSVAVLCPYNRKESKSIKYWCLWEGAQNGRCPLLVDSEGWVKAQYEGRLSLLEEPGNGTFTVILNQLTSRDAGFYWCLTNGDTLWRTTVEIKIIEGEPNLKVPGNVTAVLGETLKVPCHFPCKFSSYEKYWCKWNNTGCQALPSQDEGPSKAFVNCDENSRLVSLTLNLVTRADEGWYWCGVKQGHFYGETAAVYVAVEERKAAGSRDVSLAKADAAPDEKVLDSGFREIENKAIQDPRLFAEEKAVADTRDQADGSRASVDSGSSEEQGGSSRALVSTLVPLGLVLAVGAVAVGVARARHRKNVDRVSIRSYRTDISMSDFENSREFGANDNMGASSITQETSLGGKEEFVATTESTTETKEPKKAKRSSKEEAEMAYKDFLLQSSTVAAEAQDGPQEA
UniProt Q9UP60: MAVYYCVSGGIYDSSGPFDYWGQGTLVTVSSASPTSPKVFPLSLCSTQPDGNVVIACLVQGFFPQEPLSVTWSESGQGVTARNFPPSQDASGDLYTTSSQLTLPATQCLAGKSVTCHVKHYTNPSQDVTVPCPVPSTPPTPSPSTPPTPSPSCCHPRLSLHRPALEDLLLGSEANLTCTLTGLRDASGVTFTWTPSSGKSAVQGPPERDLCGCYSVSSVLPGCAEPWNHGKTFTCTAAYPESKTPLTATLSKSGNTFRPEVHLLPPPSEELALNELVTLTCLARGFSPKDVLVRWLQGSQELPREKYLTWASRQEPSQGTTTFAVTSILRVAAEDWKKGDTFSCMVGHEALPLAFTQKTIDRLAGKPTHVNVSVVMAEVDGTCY

The substances below were run against T1, Crystallin Alpha B (CRYAB) (human (endogenous in BMSCs)) (UniProt P02511) (assay: affinity purification with mass spectrometry; IP-MS of CRYAB in BMSCs; IgG control; hits selected by fold change (Intensity BMSC-IP/Intensity BMSC-IgG) > 10).
T1 sequence: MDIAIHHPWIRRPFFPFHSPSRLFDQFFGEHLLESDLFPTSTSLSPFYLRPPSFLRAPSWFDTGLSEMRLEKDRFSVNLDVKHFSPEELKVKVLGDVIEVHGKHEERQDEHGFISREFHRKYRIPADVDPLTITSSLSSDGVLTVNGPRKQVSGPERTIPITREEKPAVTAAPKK

Substance	binding
LTF (human (endogenous in BMSCs))	binds
HP (from UniProt P00738 19-406)	binds
DSP (from UniProt P15924 1-2871)	binds

The next lines start with the values.

binding	Substance
binds	ferritin heavy chain 1 (FTH1) (from UniProt P02794 1-183)
binds	GAPDH (from UniProt P04406 1-335)
binds	PIGR (from UniProt P01833 19-764)
binds	SNC73 (from UniProt Q9UP60 1-384)
